Data taken from the supplement of paper PMC10338343.
± gives the standard deviation. This is a selection; strong and weak results do not stand in their true shares. The uncertainty is large for many entries.

These sequences were tested on MILI (PIWIL2) piRISC loaded with Kctd7 piRNA (26 nt) (assay: pre-steady-state target cleavage rate (min^-1); MIWI and MILI are mouse PIWI proteins and EfPiwi is from a freshwater sponge; tags in brackets are library labels; higher = faster piRNA-guided slicing of the target). Conditions: guide: Kctd7 piRNA 5'p-UGUUAAUCUCUCAGAGAAGGUGACAG; auxiliary factor: 500 nM mouse GTSF1.
Summary of the method: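 The pre-steady-state cleavage rate was obtained by Cleave-'n-Seq with a burst-and-steady-state fit. A transcribed, DNA-blocked target RNA library (0.1 nM) was mixed with 1 nM active affinity-purified piRISC carrying one synthetic guide, with or without 500 nM GTSF1 partner protein, in HEPES–potassium acetate buffer at 33 °C for 0–8 or 0–960 min. Uncleaved targets were sequenced and normalised to depth and to weakly complementary targets, with three trials pooled and k3 capped at 0.0001 min^-1.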

Sequence | pre-steady-state target cleavage rate
UAGUGUGUCACCUUCUCUGACUGAUUAACA | 0.00183 ± 0.0061
UAGUGACAGUCCUUCUCAGAGUGAUUAACA | 0.00276 ± 0.0036
UAGUGACAGUCCUUCUCUCACAGAUUAACA | 0.00149 ± 0.0064
UAGUGACAGACCUUCUCUGAGUCAUUUUGA | 0.000836 ± 0.0074
UAGUGACUCACCUUCUCUCUCAGAUUUUGA | 0.000176 ± 0.067
UAGUGACAGUGGUUCUCAGAGUGAUUAACA | 0.00144 ± 0.0057
UAGUGACUCUGCUUCUCUGAGAGAUAUUGA | 0.000872 ± 0.0053
UAGUGACAGACCUUCUCUGACUCAUUUUGA | 0.000531 ± 0.019
UAGUGACAGUCCUAGACUGAGAGAUUAACA | 0.00157 ± 0.005
UAGUGACAGUCCUUGAGUGAGAGAUUAAGA | 0.000549 ± 0.014
UAGUGACACACCUUCUCUGACUCAUUUUGA | 0.000852 ± 0.0094
UAGUGACUCACCAACUCUGAGAGAUUUUGA | 0.000304 ± 0.018
UAGUGACAGUGGUUCUCUGAGAGAUUAAACA | 0.00202 ± 0.0023
UAGUGACAGUGGAAGAGUGAGCGAUUAACA | 0.000524 ± 0.011
UAGUGACAGUGGAACUCUGAGAGUUUUACA | 0.000355 ± 0.034
UAGUGACUCACCUUCUCUGAGAGCAUUAACA | 0.144 ± 0.016
UAGUGACAGUGCUACUCUGAGAGUUUAACA | 0.000981 ± 0.0042
UAGUGACAGACGUUCUCUGACAGAUUAACA | 0.0031 ± 0.0037
UAGUGACAGUGCUUCUCUGAGAGAUUACA | 0.00151 ± 0.0045
UAGUGACAGUGGAAGUCUGAGUGAUUAACA | 0.000198 ± 0.013
UAGUGUGUCACCUUCUCUGACUGAUAUUGA | 0.000359 ± 0.018

Exported as a markdown table: part of the list above

| Sequence | pre-steady-state target cleavage rate |
| --- | --- |
| UAGUGACAGUGGUUCUCAGAGUGAUUAACA | 0.00144 ± 0.0057 |
| UAGUGACUCUGCUUCUCUGAGAGAUAUUGA | 0.000872 ± 0.0053 |

(listing goes on)

Sequence | pre-steady-state target cleavage rate
UAGUCUGUCAGGAUCUCUGAGAGAUUAUGA | 0.00185 ± 0.0041
UAGUGACAGACCUUCACUGAGUGAUUAACA | 0.00199 ± 0.0054
UAGUGAGUCACCUUCUCUGAGAGAUUAACG [g2:g24:cont:t1G] | 0.284 ± 0.021
UAGUGACAGUGGAUCUCUGAGAGAUUAUACA | 0.000243 ± 0.02
UAGUGAGUCACCUUCUGCUGAGAGAUUAACA | 0.264 ± 0.058
UAGUGACAGUGGAAGUCUGAGAGCUUAACA | 0.000205 ± 0.013
UAGUGACAGUGCUUCUCUGUCAGAUUAACA | 0.00224 ± 0.0028
UAGUGUGUCACCUUCUCUGACUCAUUAACA | 0.0019 ± 0.0048
UAGUCUGUGUCCUUCUCUGAGAGAUAUUGA | 0.000867 ± 0.0057
UAGUGAGUCACCUUCUCAGAGAGAUUUACA | 0.0954 ± 0.024
UAGUGACAGUGGUUGUCUGUGAGAUUAACA | 0.00247 ± 0.0042
UAGUGACAGACCUUCUCAGAGAGAUUUUGA | 0.00196 ± 0.0064
UAGUGAGAUCACCUUCUCUGAGAGAUUAACA | 0.178 ± 0.015
UAGUGACAGUCCUUCUCUGAGAGAAAAACA | 0.000878 ± 0.0077
UAGUGACAGUGGAAGUCUGAGAGGUUAACA | 0.00125 ± 0.0031
UAGUGACUCACCUUCUCUCAGAGAUAUUGA | 0.000967 ± 0.011
UAGUGUGAGUCCUUCUCUGAGAGAUAUUGA | 0.00092 ± 0.008
UAGUGACAGUGCUUCUCUGAGAGAUUAUGA | 0.00082 ± 0.005
UAGUGACAGUGCUUCUCUGAGAGAAAAACA | 0.000781 ± 0.0092
UAGUCUGUCACCUUCUCUGAGCAGAUUAACA | 0.00288 ± 0.0039
UAGUGUGUCACCUUCUCUGAGAGUUUUACA | 0.14 ± 0.046

Sequence | pre-steady-state target cleavage rate
UAGUGACAGUCCUUCUCUGUGUGAUUAACA | 0.00142 ± 0.0047
UAGUGACUCACCUUCUCUCAGAGAUUAUGA | 0.00319 ± 0.0053
UAGUGACACACGAUCUCUGAGAGAUUUUGA | 0.000303 ± 0.021
UAGUGACAGUGGAAGUCUGGAGAUUAACA | 0.000157 ± 0.021
UAGUGACAGUGGAAGACUGAGAGAUUAACC [g2:g14:cont:t1C] | 0.000426 ± 0.013
UAGUGACAGUGGUUCUCUGAGUCAUUAACA | 0.00015 ± 0.022
UAGUGACAGUGCUUCUCUGAGAGAUAUACA | 0.002 ± 0.0027
UAGUGACAGUGGAAGACUGAGAGAUUCAACA | 0.000147 ± 0.038
UAGUGACAGUGGAACUCUGACUGAUUAACA | 0.000173 ± 0.024
UAGUGAGUCACGUUCUCUGAGAGAUUUUGA | 0.00363 ± 0.0042
UAGUGACAGACCUUCAGAGAGAGAUUAAGA | 0.000558 ± 0.025
UAGUGACAGACCUUCUCUCAGAGAAUAACA | 0.00135 ± 0.0095
UAGUGACAGUGGAAGUCUGAGUCAUUAACA | 0.00033 ± 0.019
UAGUGAGUCACCUUCUCUGCAGAGAUUAACA | 0.00349 ± 0.0052
UAGUGACAGUCCUUGUCUGAGAGAUUUACA | 0.00298 ± 0.0054
UAGUGACAGUGGAACUCUGAGACUUUAACA | 0.00207 ± 0.01
UAGUGACAGUGGAAGAGACAGAGAUUCAACA | 0.000653 ± 0.011
UAGUGACAGUGCUUCACUGAGAGAUAAACA | 0.00164 ± 0.0054
UAGUGACACAGCUUCUCUGAGUGAUUAACA | 0.00187 ± 0.006
UAGUGACUCACGAACUCUGAGAGAUUAACA | 0.000843 ± 0.0036
UAGUGUGUCACCUUCUCUGAGAGAUUGACA | 0.25 ± 0.063
